Three molecules from PMC11152124 can be followed below.

The chains behind the UniProt entries cited, without tags or fusion partners. Residues count along the entry.
UniProt O15379: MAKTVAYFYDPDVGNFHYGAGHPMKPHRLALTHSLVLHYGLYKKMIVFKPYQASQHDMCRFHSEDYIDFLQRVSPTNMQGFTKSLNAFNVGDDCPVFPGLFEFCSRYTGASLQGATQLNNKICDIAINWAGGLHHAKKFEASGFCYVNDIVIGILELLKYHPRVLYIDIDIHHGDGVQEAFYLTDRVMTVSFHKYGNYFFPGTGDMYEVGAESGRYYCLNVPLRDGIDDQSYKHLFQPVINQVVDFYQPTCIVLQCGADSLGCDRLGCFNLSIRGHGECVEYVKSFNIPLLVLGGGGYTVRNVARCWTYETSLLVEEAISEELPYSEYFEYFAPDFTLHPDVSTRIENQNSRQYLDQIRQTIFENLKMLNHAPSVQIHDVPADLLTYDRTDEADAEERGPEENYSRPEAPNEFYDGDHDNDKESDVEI
UniProt Q8TEM1, residues 27-1887: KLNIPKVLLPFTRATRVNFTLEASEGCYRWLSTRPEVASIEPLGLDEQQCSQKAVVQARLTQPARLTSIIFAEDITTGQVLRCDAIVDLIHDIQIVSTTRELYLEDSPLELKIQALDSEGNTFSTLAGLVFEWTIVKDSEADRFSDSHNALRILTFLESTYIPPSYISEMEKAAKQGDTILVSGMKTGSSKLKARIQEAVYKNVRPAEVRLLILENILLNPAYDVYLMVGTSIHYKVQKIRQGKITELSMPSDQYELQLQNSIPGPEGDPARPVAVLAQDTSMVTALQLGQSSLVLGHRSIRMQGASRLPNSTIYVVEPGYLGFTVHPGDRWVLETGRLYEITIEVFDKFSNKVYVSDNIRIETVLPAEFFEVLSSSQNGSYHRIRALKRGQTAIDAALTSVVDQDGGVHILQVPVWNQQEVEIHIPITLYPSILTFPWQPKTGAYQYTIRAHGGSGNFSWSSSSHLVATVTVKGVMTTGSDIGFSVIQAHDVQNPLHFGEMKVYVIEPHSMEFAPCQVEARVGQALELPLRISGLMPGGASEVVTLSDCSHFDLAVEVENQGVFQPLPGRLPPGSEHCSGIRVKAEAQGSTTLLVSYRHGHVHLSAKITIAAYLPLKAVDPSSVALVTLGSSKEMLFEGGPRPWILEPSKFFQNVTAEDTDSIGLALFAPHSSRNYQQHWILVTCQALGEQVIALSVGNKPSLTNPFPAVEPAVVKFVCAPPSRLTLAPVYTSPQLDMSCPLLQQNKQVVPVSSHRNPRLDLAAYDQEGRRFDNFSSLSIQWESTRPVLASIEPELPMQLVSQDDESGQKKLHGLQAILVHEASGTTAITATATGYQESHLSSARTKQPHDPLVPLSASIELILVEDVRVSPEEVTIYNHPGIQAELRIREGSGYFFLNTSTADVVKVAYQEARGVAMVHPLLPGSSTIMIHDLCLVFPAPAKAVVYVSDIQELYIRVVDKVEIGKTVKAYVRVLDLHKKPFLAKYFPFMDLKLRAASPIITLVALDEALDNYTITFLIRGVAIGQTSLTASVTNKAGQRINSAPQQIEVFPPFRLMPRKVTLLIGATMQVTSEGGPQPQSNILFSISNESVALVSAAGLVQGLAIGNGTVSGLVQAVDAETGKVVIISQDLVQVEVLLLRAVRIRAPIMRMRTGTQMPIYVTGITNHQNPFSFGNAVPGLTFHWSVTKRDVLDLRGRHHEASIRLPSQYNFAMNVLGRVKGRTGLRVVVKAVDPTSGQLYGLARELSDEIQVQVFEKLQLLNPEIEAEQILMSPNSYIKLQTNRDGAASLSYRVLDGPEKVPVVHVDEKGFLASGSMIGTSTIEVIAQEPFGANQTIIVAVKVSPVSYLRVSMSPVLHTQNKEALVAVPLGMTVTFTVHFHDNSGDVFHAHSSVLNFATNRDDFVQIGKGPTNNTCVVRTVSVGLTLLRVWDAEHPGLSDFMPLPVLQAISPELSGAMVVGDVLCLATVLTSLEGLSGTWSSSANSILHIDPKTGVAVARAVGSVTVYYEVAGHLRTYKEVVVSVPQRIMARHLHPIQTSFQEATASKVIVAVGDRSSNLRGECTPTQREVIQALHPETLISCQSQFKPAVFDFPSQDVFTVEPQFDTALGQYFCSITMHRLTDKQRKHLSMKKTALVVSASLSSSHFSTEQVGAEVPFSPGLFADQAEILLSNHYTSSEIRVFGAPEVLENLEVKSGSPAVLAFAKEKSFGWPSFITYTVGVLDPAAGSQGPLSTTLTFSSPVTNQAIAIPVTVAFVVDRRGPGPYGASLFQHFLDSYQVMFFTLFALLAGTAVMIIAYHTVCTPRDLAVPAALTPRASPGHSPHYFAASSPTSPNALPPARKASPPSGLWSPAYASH
UniProt P49792: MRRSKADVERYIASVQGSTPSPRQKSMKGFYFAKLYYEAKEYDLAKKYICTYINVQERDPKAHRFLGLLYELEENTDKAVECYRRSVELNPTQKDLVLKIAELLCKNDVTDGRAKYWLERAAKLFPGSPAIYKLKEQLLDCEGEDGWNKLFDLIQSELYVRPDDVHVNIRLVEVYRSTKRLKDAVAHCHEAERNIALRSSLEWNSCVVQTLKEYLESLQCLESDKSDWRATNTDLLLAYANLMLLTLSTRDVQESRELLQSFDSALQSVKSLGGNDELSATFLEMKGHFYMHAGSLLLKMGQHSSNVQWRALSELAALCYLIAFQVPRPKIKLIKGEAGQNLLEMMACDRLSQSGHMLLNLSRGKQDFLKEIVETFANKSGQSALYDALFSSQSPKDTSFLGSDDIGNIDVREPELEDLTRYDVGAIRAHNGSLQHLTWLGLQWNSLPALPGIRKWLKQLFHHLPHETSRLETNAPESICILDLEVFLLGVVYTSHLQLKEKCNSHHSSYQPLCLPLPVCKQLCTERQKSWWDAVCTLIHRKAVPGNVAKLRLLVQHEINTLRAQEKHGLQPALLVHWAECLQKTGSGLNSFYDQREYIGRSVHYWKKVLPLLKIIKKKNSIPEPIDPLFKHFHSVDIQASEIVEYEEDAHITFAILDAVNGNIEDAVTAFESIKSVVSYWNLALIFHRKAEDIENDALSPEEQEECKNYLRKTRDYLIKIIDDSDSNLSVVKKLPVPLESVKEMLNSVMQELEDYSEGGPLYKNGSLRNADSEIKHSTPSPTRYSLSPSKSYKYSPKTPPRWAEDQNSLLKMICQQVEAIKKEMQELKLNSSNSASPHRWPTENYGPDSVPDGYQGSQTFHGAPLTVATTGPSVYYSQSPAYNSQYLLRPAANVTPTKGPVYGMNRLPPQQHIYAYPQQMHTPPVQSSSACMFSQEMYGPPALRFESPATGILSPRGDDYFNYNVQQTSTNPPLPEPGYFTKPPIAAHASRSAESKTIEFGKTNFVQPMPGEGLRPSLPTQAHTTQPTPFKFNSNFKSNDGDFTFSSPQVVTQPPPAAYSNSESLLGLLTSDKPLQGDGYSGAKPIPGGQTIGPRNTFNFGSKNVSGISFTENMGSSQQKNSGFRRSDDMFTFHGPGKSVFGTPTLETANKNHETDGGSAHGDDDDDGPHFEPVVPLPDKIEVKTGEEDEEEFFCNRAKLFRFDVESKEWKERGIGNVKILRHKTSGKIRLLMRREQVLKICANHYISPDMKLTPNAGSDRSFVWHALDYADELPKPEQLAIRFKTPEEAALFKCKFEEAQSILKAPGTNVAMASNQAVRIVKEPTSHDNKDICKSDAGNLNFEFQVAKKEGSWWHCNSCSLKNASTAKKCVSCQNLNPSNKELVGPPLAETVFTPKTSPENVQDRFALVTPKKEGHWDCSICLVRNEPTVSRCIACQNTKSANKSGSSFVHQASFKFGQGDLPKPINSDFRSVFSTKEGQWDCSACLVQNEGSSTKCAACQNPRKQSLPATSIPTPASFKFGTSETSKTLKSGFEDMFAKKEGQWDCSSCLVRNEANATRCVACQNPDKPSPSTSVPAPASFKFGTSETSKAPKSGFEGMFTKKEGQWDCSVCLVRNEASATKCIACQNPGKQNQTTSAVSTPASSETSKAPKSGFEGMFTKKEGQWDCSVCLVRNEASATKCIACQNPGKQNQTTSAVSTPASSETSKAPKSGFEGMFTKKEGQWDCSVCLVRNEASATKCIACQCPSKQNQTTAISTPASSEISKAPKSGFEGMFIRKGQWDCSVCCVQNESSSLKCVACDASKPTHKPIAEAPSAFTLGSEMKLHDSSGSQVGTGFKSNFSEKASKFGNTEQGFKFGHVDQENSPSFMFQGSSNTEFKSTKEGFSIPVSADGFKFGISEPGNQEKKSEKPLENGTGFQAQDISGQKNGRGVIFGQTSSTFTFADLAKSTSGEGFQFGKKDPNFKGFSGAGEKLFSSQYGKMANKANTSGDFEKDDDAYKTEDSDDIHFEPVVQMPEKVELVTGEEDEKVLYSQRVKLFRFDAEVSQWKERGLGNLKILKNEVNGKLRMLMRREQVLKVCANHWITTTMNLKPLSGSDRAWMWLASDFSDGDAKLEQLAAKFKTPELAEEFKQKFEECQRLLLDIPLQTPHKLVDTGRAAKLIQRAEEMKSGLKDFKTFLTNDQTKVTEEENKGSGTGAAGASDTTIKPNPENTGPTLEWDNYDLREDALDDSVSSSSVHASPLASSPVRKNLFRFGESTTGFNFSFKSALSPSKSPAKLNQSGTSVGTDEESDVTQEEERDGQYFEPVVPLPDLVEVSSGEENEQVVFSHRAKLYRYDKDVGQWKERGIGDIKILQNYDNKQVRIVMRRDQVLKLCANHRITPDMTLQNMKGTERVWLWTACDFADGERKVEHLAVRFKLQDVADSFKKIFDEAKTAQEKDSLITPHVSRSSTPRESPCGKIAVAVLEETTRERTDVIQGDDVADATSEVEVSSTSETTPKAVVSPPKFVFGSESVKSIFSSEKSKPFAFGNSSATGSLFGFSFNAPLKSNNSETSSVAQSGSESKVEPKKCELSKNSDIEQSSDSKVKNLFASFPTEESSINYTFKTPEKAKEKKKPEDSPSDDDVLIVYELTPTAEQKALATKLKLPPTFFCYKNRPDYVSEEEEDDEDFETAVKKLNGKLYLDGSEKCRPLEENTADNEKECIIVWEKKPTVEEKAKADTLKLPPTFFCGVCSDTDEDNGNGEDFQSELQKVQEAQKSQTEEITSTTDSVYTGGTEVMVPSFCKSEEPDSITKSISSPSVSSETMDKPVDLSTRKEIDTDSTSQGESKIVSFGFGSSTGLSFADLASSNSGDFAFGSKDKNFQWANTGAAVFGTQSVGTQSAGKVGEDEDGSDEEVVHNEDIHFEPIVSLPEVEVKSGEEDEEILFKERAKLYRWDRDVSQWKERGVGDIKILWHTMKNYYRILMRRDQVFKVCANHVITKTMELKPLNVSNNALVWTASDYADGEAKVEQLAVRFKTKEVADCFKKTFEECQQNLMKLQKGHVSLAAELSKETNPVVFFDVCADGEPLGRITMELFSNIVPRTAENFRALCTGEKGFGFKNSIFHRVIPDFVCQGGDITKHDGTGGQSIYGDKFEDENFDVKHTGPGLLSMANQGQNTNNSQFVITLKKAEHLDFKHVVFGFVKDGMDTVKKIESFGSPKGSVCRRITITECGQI

First the molecules themselves.
B1: Nup96 (protein, UniProt P52948 881-1817)
chain: SKYGLQDSDEEEEEHPSKTSTKKLKTAPLPPASQTTPLQMALNGKPAPPPQSQSPEVEQLGRVVELDSDMVDITQEPVLDTMLEESMPEDQEPVSASTHIASSLGINPHVLQIMKASLLTDEEDVDMALDQRFSRLPSKADTSQEICSPRLPISASHSSKTRSLVGGLLQSKFTSGAFLSPSVSVQECRTPRAASLMNIPSTSSWSVPPPLTSVFTMPSPAPEVPLKTVGTRRQLGLVPREKSVTYGKGKLLMDMALFMGRSFRVGWGPNWTLANSGEQLNGSHELENHQIADSMEFGFLPNPVAVKPLTESPFKVHLEKLSLRQRKPDEDMKLYQTPLELKLKHSTVHVDELCPLIVPNLGVAVIHDYADWVKEASGDLPEAQIVKHWSLTWTLCEALWGHLKELDSQLNEPREYIQILERRRAFSRWLSCTATPQIEEEVSLTQKNSPVEAVFSYLTGKRISEACSLAQQSGDHRLALLLSQFVGSQSVRELLTMQLVDWHQLQADSFIQDERLRIFALLAGKPVWQLSEKKQINVCSQLDWKRSLAIHLWYLLPPTASISRALSMYEEAFQNTSDSDRYACSPLPSYLEGSGCVIAEEQNSQTPLRDVCFHLLKLYSDRHYDLNQLLEPRSITADPLDYRLSWHLWEVLRALNYTHLSAQCEGVLQASYAGQLESEGLWEWAIFVLLHIDNSGIREKAVRELLTRHCQLLETPESWAKETFLTQKLRVPAKWIHEAKAVRAHMESDKHLEALCLFKAEHWNRCHKLIIRHLASDAIINENYDYLKGFLEDLAPPERSSLIQDWETSGLVYLDYIRVIEMLRHIQQVDCSGNDLEQLHIKVTSLCSRIEQIQCYSAKDRLAQSDMAKRVANLLRVVLSLHHPPDRTSDSTPDPQRVPLRLLAPHIGRLPMPEDYAMDELRSLTQSYLRELAVGSL

Results are given in words; binding and its absence hold for the method and conditions named. In cells and extracts the contact can be indirect. Some results given as binding are weak or reduced against the parent protein; the word gives no strength.

The target of this assay is histone deacetylase 3 (HDAC3) (human (endogenous in 293T)) (UniProt O15379). The assay can be described thus: co-IP; HDAC3 immunoprecipitated with an anti-HDAC3 antibody (Cell Signaling Technology, 85057) and Protein A/G magnetic beads from 293T extracts (scramble control or Nup358-targeting shRNA, doxycycline); IP buffer 50 mM Tris pH 7.4, 150 mM NaCl, 0.5% NP-40, 1 mM EDTA, 1 mM MgCl2, 1 mM dithiothreitol, 20 mM N-ethylmaleimide; overnight at 4°C; control rabbit IgG; Western blot. On the technique in general: A western blot detects proteins with antibodies after separation by electrophoresis.
Nup210 (from UniProt Q8TEM1 27-1887): the binding result is “binds”.
With “Nup358, also known as RanBP2 (from UniProt P49792 1-3224)” the entry was “binds”.
In the case of B1, the binding entry was “no binding”.
